Assay results from article doi:10.1101/2022.04.06.487337.
No constants are given. Whether binding was seen depends on the method and setting. Some results given as binding are weak or reduced against the parent protein; the word gives no strength.

Amino acid sequences for entries named in this document (tags omitted).
UniProt Q9UJU2: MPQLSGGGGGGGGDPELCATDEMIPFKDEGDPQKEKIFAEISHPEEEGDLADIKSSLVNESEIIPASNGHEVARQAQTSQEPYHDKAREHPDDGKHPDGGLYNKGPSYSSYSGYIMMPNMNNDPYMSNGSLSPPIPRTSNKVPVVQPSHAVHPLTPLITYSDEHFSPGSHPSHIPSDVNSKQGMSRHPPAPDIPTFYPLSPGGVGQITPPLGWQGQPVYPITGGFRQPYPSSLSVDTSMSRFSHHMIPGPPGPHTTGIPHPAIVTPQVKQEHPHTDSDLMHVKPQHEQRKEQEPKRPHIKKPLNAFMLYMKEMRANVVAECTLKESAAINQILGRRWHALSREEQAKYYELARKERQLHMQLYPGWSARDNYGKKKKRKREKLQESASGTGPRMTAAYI
UniProt P36402: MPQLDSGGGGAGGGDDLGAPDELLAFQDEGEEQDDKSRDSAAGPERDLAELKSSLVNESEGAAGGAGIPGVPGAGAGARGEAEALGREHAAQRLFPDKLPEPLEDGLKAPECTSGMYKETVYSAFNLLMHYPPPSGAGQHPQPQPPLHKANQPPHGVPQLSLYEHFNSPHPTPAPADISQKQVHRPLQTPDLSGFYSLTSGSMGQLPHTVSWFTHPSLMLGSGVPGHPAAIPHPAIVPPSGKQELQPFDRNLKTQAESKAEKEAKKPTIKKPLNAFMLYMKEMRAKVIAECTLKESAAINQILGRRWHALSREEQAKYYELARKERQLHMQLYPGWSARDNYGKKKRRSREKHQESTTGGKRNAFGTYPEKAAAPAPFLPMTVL
UniProt P48436: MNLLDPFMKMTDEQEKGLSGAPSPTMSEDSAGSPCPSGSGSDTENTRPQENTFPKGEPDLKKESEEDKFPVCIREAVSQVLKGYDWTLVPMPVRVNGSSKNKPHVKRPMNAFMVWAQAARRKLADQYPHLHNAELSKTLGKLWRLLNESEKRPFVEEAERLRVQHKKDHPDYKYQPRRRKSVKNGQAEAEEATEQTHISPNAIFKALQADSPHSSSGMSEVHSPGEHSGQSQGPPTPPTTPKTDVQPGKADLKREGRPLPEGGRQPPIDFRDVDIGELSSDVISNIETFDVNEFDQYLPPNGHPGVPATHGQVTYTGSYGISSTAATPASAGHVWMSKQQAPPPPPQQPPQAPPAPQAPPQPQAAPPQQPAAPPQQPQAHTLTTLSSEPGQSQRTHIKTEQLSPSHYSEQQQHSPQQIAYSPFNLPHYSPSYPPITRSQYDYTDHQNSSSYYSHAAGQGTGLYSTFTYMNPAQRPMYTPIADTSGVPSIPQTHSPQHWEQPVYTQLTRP

Tests used:
[1] = biological target: GST-tagged LEF1 (full-length) (UniProt Q9UJU2); assay: pull-down
GST-tagged TCF7 = GST-tagged TCF7 (UniProt P36402); assay: pull-down

His-tagged SOX9 (full-length) (from UniProt P48436 1-509)
binding [1]: binds | binding (GST-tagged TCF7): binds
